Record: PubChem BioAssay AID504784 (Drosophila RNAi Screening Center, 2011)
The screen tested about 17,000 reagents; shown is a random part of those that have a named target and a result. 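Each column is one replicate's B-score; the combined score over replicates was not deposited, so single values may mislead.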 The numbers tell different reagents against one gene apart. Names joined by + are all predicted targets of the reagent. Further read-outs or replicates are left out here. Reagent sequences are not shown.

Aim: 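Genome-wide knock-down for genes giving too much or too little stored lipid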 (primary screen)
Cells: Drosophila Kc167 embryonic cells
Knock-down reagent: long dsRNA against Drosophila genes, about 250 ng dsRNA per well
Timing: 4 days
Challenge: cells fed 400 µM oleic acid bound to BSA
Detection: 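Cells imaged and segmented; ratio of lipid droplet area to nuclear area, log-transformed, then normalised as a B-score over the screen; higher means more stored lipid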
Reading the numbers: droplet/nuclear area B-score: higher = more stored lipid (overstorage)

After knock-down of Pfas, the record shows droplet/nuclear area B-score, replicate 1 = -0.86.
Knock-down of Fadd resulted in: droplet/nuclear area B-score, replicate 1 = -1.1.
With knock-down of CG10384 #1 the results were droplet/nuclear area B-score, replicate 1 = -0.531.
With knock-down of CG10384 #2 the results were droplet/nuclear area B-score, replicate 1 = 5.32.
With knock-down of CG7248 the results were droplet/nuclear area B-score, replicate 1 = 0.304.
With knock-down of CG6638 the results were droplet/nuclear area B-score, replicate 1 = 0.0994.
ATPCL scored droplet/nuclear area B-score, replicate 1 = -1.35.
Against CG10804, the entry reads droplet/nuclear area B-score, replicate 1 = -1.79.
Silencing of CG34367 #1 came out at: droplet/nuclear area B-score, replicate 1 = -1.57.
Knock-down of CG34367 #2 came out at: droplet/nuclear area B-score, replicate 1 = -0.515.
Cyp28a5 gave droplet/nuclear area B-score, replicate 1 = 2.76.
Silencing of CG15515 came out at: droplet/nuclear area B-score, replicate 1 = 1.05.
CG31249 showed droplet/nuclear area B-score, replicate 1 = -1.92.
With knock-down of CG16798 the results were droplet/nuclear area B-score, replicate 1 = 0.856.

In a second layout: entries from further up
target gene,reagent no.,"droplet/nuclear area B-score, replicate 1"
CG7248,1,0.304
CG6638,1,0.0994

The listing continues:
With knock-down of Hsp83, the record shows droplet/nuclear area B-score, replicate 1 = 0.0962.
Depletion of CG32579 gave: droplet/nuclear area B-score, replicate 1 = 0.0666.
Against CG10465 the deposit lists droplet/nuclear area B-score, replicate 1 = -0.252.
Atx-1 showed droplet/nuclear area B-score, replicate 1 = -1.33.
Depletion of primo-2 + primo-1 resulted in: droplet/nuclear area B-score, replicate 1 = 0.484.
Silencing of betaNACtes3 came out at: droplet/nuclear area B-score, replicate 1 = -0.0275.
Depletion of CG32121 resulted in: droplet/nuclear area B-score, replicate 1 = -2.14.
Against CG2076 the deposit lists droplet/nuclear area B-score, replicate 1 = 1.67.
CG15194 (retired record) #1 scored droplet/nuclear area B-score, replicate 1 = 0.048.
CG15194 (retired record) #2 gave droplet/nuclear area B-score, replicate 1 = -2.07.
Knock-down of TBC1d7 came out at: droplet/nuclear area B-score, replicate 1 = 0.443.
morgue scored droplet/nuclear area B-score, replicate 1 = 0.0353.
Against CG12171, the entry reads droplet/nuclear area B-score, replicate 1 = -0.278.
